Results reported in article PMC3896468.

Molecular target: GST-tagged HMG domain of TCF/Pangolin (Drosophila)
Test: pull-down; GST pulldown: 2 µg His-C-clamp with 2 µg GST or GST-HMG, 1 h at 4°C in 20 mM Tris-HCl pH 7.62, 150 mM NaCl, 1% Triton X-100; then Glutathione Sepharose beads for 2 h; anti-His Western blot. Also done after pretreatment with micrococcal nuclease (5 mM CaCl2) or OPA, with no effect on binding; both purified

## DSGGNNMKACEARFGLDQQSQWCKPCRRKKKCIRYMEALNGNGPAE (domain or fragment, UniProt P91943 363-408) [Mutant 5 His-tagged C-clamp fragment of TCF/Pangolin (K371A, R373E)]
  binding: no binding (tested: 2 µg of each protein)

These are yes or no findings as the source states them, for the method shown. Where a sequence is shown, tags or fusion partners need not be part of it.
